# Among all 350,000 compounds or so, about 220 (0.063%) were called active. Inconclusive results, whose numbers are uncertain, are shown with a selection of clear calls. Calls follow the shape of the dose curve; as a rule, active = well fitted activation curve with a large enough effect; inconclusive = small, poorly fitted or top-dose-only effect; inactive = no such curve, though single readings can be large or run the other way. A potency beside an inconclusive call is a rough fit, not a confirmed value.
# Test: qHTS for Activators of Integrin-Mediated Alleviation for Muscular Dystrophy; also: nearly all actives have a fitted effect of over 60% in size;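 as to activation: 100% = response of the positive control SU9516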
# Settings: alpha7betagal myoblasts, beta-gal FDG fluorescence, 48 h; activation: at 38.3 µM (top of the series)
# Procedure, shortened: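 alpha7betagal+/- myoblasts (passage 13, 250/well) treated 48 h at 37C with compounds at 1:260 dilution of DMSO stock. Lysed, then beta-galactosidase activity read as FDG fluorescence (ex 480/em 540) after 30 min, with pre-read for autofluorescence.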
# Potency is read from the fitted curve at half-maximal effect.
Structure (SMILES),Potency,activation
CN(C)S(=O)(=O)c1cccc(NS(=O)(=O)c2ccc(Cl)s2)c1,"inconclusive: 28.2 µM [activator, single point]",
COCc1cc(C)nc(SCC(=O)Nc2nc(C)cs2)c1C#N,,inactive: 5.21%
COc1ccc(Cl)cc1NC(=O)CN(C(=O)c1ccco1)C1CCCCC1,,inactive: 17%
CCCCOc1ccc(C(=O)CCN2CCOCC2)cc1,,inactive: -38.2%
Cc1cccc(C=Nc2ccccc2C(N)=O)c1,,inactive: -3.97%
Cc1c(C(=O)N2c3ccccc3Sc3ccccc32)cccc1[N+](=O)[O-],"inconclusive: 1 µM [activator, partial curve, poor fit]",
Cc1c(C(=O)Nc2nnc(C3CC3)s2)oc2ccccc12,"inconclusive: 7.08 µM [activator, partial curve, poor fit]",
CCOC(=O)c1c(NC(C)=O)sc2c1CCC(C=O)=C2Sc1ccccc1,,inactive: -59.6%
CCOc1ccccc1Nc1cc2n(c(=O)n1)CCc1cc(OC)c(OC)cc1-2,"inconclusive: 11.2 µM [activator, partial curve, poor fit]",
CCN(CC)C(=O)c1cc2c(=O)c3cc(Cl)ccc3oc2nc1C,,inactive: 0.421%
O=C(CSc1ccccc1)Nc1nnc(COc2ccc(Cl)cc2)s1,"inconclusive: 11.2 µM [activator, partial curve, poor fit]",
CNC(=S)NN(c1ccccc1)c1ccccc1,,inactive: 21.8%
O=C1OC(N2CCN(Cc3ccccc3)CC2)c2ccccc21 (stereo unspecified),,inactive: -5.08%
Oc1ccc(Br)cc1CNc1ccccn1,"inconclusive: 2.82 µM [activator, single point]",
CCN1C(=O)[C@H]2[C@H]3CN=C(SCc4ccc(C)cc4)N3[C@@](Cc3ccccc3)(C(=O)OC)[C@H]2C1=O,,inactive: 0.139%
COc1ccc(-c2nc(-c3cccs3)c(-c3cccs3)[nH]2)cc1OC,,inactive: -5.22%
O=C(COC(=O)CNC(=O)c1ccccc1)NC(=O)NC1CCCCC1,"inconclusive: 1 µM [activator, full curve, poor fit]",
NC(=O)c1ccsc1NC(=O)COC(=O)CNC(=O)c1ccc(Cl)cc1,,inactive: -0.583%
COc1ccc(S(=O)(=O)N2CCCCC2)cc1NC(=O)CN1CCN(C(C)=O)CC1,"inconclusive: 12.6 µM [activator, single point]",
CCN(C[C@H]1N[C@@](C)(C(=O)OC)[C@H]2C(=O)N(C)C(=O)[C@@H]12)S(=O)(=O)c1ccc(OC)cc1,,inactive: 3.5%
CCOC(=O)C1CCCN(c2ccc(NC(=O)c3snc4c(=O)[nH]cnc34)cc2)C1 (stereo unspecified),"inconclusive: 5.01 µM [activator, single point]",
COCCCNC(=O)c1cn(-c2cccc(OC)c2)c(=O)c2ccccc12,"inconclusive: 5.01 µM [activator, single point]",
CC(C)Oc1ccc(C(=O)Nc2ncn[nH]2)cc1,,inactive: 7.27%

Structure (SMILES),Potency,activation
N#CC1=CN(Cc2ccccc2)C=C(/C=N/Nc2ccccc2)C1,,inactive: -3.29%
Cc1cccc(NC(=O)C2COc3ccccc3O2)c1 (stereo unspecified),"inconclusive: 5.01 µM [activator, single point]",
COc1cc2ccccc2cc1C(=O)NC(=S)Nc1nnn(C)n1,"inconclusive: 5.62 µM [activator, partial curve, poor fit]",
CC1CCC(NC(=O)c2nn(C)c3c2CSc2ccccc2-3)CC1 (stereo unspecified),"inconclusive: 1.78 µM [activator, full curve, poor fit]",
COC(=O)C1CCN(C(=O)c2cc(-c3ccc(Cl)s3)nc3ccccc23)CC1,"inconclusive: 5.01 µM [activator, single point]",
CCN(CC)C(=O)C1CCCN(C(=O)c2cc(COc3ccc4ncccc4c3)on2)C1 (stereo unspecified),,inactive: -23%
Nc1c(Cl)c(Cl)nc(C(=O)OCC(=O)NCc2ccccc2)c1Cl,"inconclusive: 0.501 µM [activator, full curve, poor fit]",
O=C(COC(=O)C1CC1)Nc1ccc2[nH]c(=O)[nH]c2c1,"inconclusive: 28.2 µM [activator, single point]",
Nc1nnc(-c2cn(-c3ccccc3)nc2-c2ccccc2)o1,,inactive: 15.2%
COc1ccc(S(=O)(=O)c2ccccc2)cc1NS(=O)(=O)c1cccc(C(=O)O)c1,"inconclusive: 5.01 µM [activator, single point]",
Cc1ccccc1S(=O)(=O)Cc1ccc(C(=O)NCCCN2CCCC2)o1,"inconclusive: 5.01 µM [activator, single point]",
O=C(COC(=O)C1CC2CCCC(C1)C2=O)NC(=O)c1ccccc1 (stereo unspecified),"inconclusive: 5.62 µM [activator, partial curve, poor fit]",
CC(=O)NCCCC(=O)NN1C(=S)N(Cc2ccccc2)C(=O)C1CC(=O)Nc1cccc(C)c1 (stereo unspecified),"inconclusive: 2.82 µM [activator, single point]",
CSc1ncccc1C(=O)N(C)CC(=O)Nc1cccc(F)c1,"inconclusive: 1.58 µM [activator, single point]",
O=C(Nc1sc(-c2ccccc2)cc1C(=O)O)c1ccccc1,"inconclusive: 4.47 µM [activator, single point]",
C=CCNC(=O)/C(C#N)=C\c1cc(Cl)c(O)c(OCC)c1,,inactive: 22.4%
COc1ccc(C(C)=O)cc1COC(=O)c1cc(=O)c2ccccc2o1,"inconclusive: 5.01 µM [activator, single point]",
COc1ccc(N2CCN(C(=O)c3ccc(CS(=O)(=O)c4ccc(Br)cc4)o3)CC2)cc1,"inconclusive: 0.501 µM [activator, partial curve, poor fit]",
Nc1ccc2c3c(cccc13)-c1ccccc1-2,,inactive: 2.95%
O=C(O)CCC(=O)Nc1sc2c(c1C(=O)Nc1cccc3ccccc13)CCCCC2,"inconclusive: 14.1 µM [activator, partial curve, poor fit]",
CC(NC(=O)COC(=O)c1ccc2c(c1)OCCO2)c1ccccc1 (stereo unspecified),"inconclusive: 11.2 µM [activator, single point]",
O=C(N/N=C/c1cccnc1)c1ccccc1NS(=O)(=O)c1cccs1,"inconclusive: 28.2 µM [activator, single point]",
Cc1ccc(N(CC(=O)NC2CCCC2)C(=O)CNC(=O)c2cccs2)cc1F,"inconclusive: 2 µM [activator, full curve, poor fit]",

# Of the compounds above, these contain bromine.
Structure (SMILES),Potency,activation
Oc1ccc(Br)cc1CNc1ccccn1,"inconclusive: 2.82 µM [activator, single point]",
COc1ccc(N2CCN(C(=O)c3ccc(CS(=O)(=O)c4ccc(Br)cc4)o3)CC2)cc1,"inconclusive: 0.501 µM [activator, partial curve, poor fit]",

# Reference: PubChem BioAssay AID624291 (National Center for Advancing Translational Sciences (NCATS), 2012)
